Positions count from the first letter of the chain named. This is one part of the list.

The source of these data is PMC8384837.

Holding throughout (settings): yeast three-hybrid, YBZ-1, SC-Leu-His + 0.5 mM 3-AT, 4 days
Experiment [1] concerns the target T1, PUM1 PUF domain R2-EWD N899E + Y900W + Q903D (Homo sapiens) (UniProt Q14671).
T1 sequence: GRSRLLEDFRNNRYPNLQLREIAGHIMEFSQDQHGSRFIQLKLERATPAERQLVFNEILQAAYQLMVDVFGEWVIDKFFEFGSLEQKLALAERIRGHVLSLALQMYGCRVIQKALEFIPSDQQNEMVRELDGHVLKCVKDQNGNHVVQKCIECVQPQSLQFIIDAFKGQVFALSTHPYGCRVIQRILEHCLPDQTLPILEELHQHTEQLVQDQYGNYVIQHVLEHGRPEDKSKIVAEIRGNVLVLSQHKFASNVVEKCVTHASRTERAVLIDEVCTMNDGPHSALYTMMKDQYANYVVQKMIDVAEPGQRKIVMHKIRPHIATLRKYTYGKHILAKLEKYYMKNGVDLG

Experiment [2] addresses T2, PUM1 PUF domain R2-RRA N899R + Y900R + Q903A (Homo sapiens) (UniProt Q14671).
T2 sequence: T1 sequence with E72R, W73R, D76A

For experiment [3], the target named is T3, PUM1 PUF domain R2-RRQ N899R + Y900R (Homo sapiens) (UniProt Q14671).
T3 sequence: T1 sequence with E72R, W73R, D76Q

Experiment [4] has as its target T4, PUM1 PUF domain R2-RRT N899R + Y900R + Q903T (Homo sapiens) (UniProt Q14671).
T4 sequence: T1 sequence with E72R, W73R, D76T

The target of experiment [5] is T5, PUM1 PUF domain R2-RRV N899R + Y900R + Q903V (Homo sapiens) (UniProt Q14671).
T5 sequence: T1 sequence with E72R, W73R, D76V

Experiment [6] deals with T6, PUM1 PUF domain R4-GQG N971G + H972Q + Q975G (Homo sapiens) (UniProt Q14671).
T6 sequence: T1 sequence with E72N, W73Y, D76Q, N144G, H145Q, Q148G

The target in experiment [7] is T7, PUM1 PUF domain R4-LNA N971L + H972N + Q975A (Homo sapiens) (UniProt Q14671).
T7 sequence: T1 sequence with E72N, W73Y, D76Q, N144L, H145N, Q148A

Experiment [8] has as its target T8, PUM1 PUF domain R4-LNC N971L + H972N + Q975C (Homo sapiens) (UniProt Q14671).
T8 sequence: T1 sequence with E72N, W73Y, D76Q, N144L, H145N, Q148C

Experiment [9] addresses T9, PUM1 PUF domain R4-NCG H972C + Q975G (Homo sapiens) (UniProt Q14671).
T9 sequence: T1 sequence with E72N, W73Y, D76Q, H145C, Q148G

Experiment [10] concerns the target T10, PUM1 PUF domain R4-QPA N971Q + H972P + Q975A (Homo sapiens) (UniProt Q14671).
T10 sequence: T1 sequence with E72N, W73Y, D76Q, N144Q, H145P, Q148A

The target of experiment [11] is T11, PUM1 PUF domain R4-VCA N971V + H972C + Q975A (Homo sapiens) (UniProt Q14671).
T11 sequence: T1 sequence with E72N, W73Y, D76Q, N144V, H145C, Q148A

In experiment [12] the target is T12, PUM1 PUF domain R4-VNG N971V + H972N + Q975G (Homo sapiens) (UniProt Q14671).
T12 sequence: T1 sequence with E72N, W73Y, D76Q, N144V, H145N, Q148G

Experiment [13] has as its target T13, PUM1 PUF domain R4-WGM N971W + H972G + Q975M (Homo sapiens) (UniProt Q14671).
T13 sequence: T1 sequence with E72N, W73Y, D76Q, N144W, H145G, Q148M

For experiment [14], the target named is T14, PUM1 PUF domain R6-AWG N1043A + Y1044W + Q1047G (Homo sapiens) (UniProt Q14671).
T14 sequence: T1 sequence with E72N, W73Y, D76Q, N216A, Y217W, Q220G

For experiment [15], the target named is T15, PUM1 PUF domain R6-CYL N1043C + Q1047L (Homo sapiens) (UniProt Q14671).
T15 sequence: T1 sequence with E72N, W73Y, D76Q, N216C, Q220L

Experiment [16] concerns the target T16, PUM1 PUF domain R6-GFE N1043G + Y1044F + Q1047E (Homo sapiens) (UniProt Q14671).
T16 sequence: T1 sequence with E72N, W73Y, D76Q, N216G, Y217F, Q220E

The target of experiment [17] is T17, PUM1 PUF domain R6-GLR N1043G + Y1044L + Q1047R (Homo sapiens) (UniProt Q14671).
T17 sequence: T1 sequence with E72N, W73Y, D76Q, N216G, Y217L, Q220R

Experiment [18] deals with T18, PUM1 PUF domain R6-GWE N1043G + Y1044W + Q1047E (Homo sapiens) (UniProt Q14671).
T18 sequence: T1 sequence with E72N, W73Y, D76Q, N216G, Y217W, Q220E

Experiment [19] has as its target T19, PUM1 PUF domain R6-LFG N1043L + Y1044F + Q1047G (Homo sapiens) (UniProt Q14671).
T19 sequence: T1 sequence with E72N, W73Y, D76Q, N216L, Y217F, Q220G

Experiment [20] concerns the target T20, PUM1 PUF domain R6-RRK N1043R + Y1044R + Q1047K (Homo sapiens) (UniProt Q14671).
T20 sequence: T1 sequence with E72N, W73Y, D76Q, N216R, Y217R, Q220K

Take “GGCUAGAACUAGUGGAUCCCCCGGCGCCCGGCGGCUCGAGCCCGGGUAAGUGUAAAUAGUCUGCAUGCCGCCGGGCGCCAUGCCUGCAGGUCGACUCUAGAAAACAUG”: the binding signal (log2 enrichment (interaction score)) in experiment [1] is 0.12; in [2], -2.87; in [3] it was -5.99; in experiment [4], -3.68; in experiment [5], -2.72; in experiment [6], -0.27. Further, the binding signal (log2 enrichment (interaction score)) in [7] is -3.1; in [8] it was -2.04; in experiment [9], 0.67; in experiment [10], -1.7; in [11], -4.73; in [12] it was 0.29. In addition, the binding signal (log2 enrichment (interaction score)) is 0.78 in experiment [13]; -1.95 in experiment [14]; -1.23 in experiment [15]; -4.53 in experiment [16]; -5.04 in experiment [17]; -4.47 in experiment [18]. In addition, the binding signal (log2 enrichment (interaction score)) was 0.63 in [19] and -1.3 in experiment [20].
For “GGCUAGAACUAGUGGAUCCCCCGGCGCCCGGCGGCUCGAGCCCGGGUAAGUGGAAAUAGUCUGCAUGCCGCCGGGCGCCAUGCCUGCAGGUCGACUCUAGAAAACAUG”, the binding signal (log2 enrichment (interaction score)) in experiment [14] is -7.23.
Consider “GGCUAGAACUAGUGGAUCCCCCGGCGCCCGGCGGCUCGAGCCCGGGUAAGUGAAAAUAGUCUGCAUGCCGCCGGGCGCCAUGCCUGCAGGUCGACUCUAGAAAACAUG”, for which the binding signal (log2 enrichment (interaction score)) was -6.05 in experiment [17], -0.53 in experiment [18] and -4.38 in [20].
In the case of “GGCUAGAACUAGUGGAUCCCCCGGCGCCCGGCGGCUCGAGCCCGGGUAAGUGUAAAAAGUCUGCAUGCCGCCGGGCGCCAUGCCUGCAGGUCGACUCUAGAAAACAUG”, the binding signal (log2 enrichment (interaction score)) in [1] was 1.85; in [2], -0.85; in [3], -0.2; in experiment [4] it was -1.11; in [5] it was -0.72.
In the case of “GGCUAGAACUAGUGGAUCCCCCGGCGCCCGGCGGCUCGAGCCCGGGUAAGUGUACAUAGUCUGCAUGCCGCCGGGCGCCAUGCCUGCAGGUCGACUCUAGAAAACAUG”, the binding signal (log2 enrichment (interaction score)) was -2.73 in experiment [6]; -1.12 in experiment [7]; -0.23 in [8]; -0.23 in experiment [9]; 0.22 in experiment [10]; -1.11 in [11]. Also, the binding signal (log2 enrichment (interaction score)) in [12] is 0.34; in experiment [13], -2.38.
Take “GGCUAGAACUAGUGGAUCCCCCGGCGCCCGGCGGCUCGAGCCCGGGUAAGUGCAAAUAGUCUGCAUGCCGCCGGGCGCCAUGCCUGCAGGUCGACUCUAGAAAACAUG”: the binding signal (log2 enrichment (interaction score)) is -4.27 in [15], -5.49 in [16] and -2.22 in experiment [19].
